# Test results from patent US8461305B2, “L-fucose α1→6 specific lectin” (J-Oil Mills, Inc., priority 2008, dated 2013).
# Sequences of proteins named here, by UniProt entry; tags and fusion partners are left off. Residues count along the entry.
# UniProt P02769, residues 25-607: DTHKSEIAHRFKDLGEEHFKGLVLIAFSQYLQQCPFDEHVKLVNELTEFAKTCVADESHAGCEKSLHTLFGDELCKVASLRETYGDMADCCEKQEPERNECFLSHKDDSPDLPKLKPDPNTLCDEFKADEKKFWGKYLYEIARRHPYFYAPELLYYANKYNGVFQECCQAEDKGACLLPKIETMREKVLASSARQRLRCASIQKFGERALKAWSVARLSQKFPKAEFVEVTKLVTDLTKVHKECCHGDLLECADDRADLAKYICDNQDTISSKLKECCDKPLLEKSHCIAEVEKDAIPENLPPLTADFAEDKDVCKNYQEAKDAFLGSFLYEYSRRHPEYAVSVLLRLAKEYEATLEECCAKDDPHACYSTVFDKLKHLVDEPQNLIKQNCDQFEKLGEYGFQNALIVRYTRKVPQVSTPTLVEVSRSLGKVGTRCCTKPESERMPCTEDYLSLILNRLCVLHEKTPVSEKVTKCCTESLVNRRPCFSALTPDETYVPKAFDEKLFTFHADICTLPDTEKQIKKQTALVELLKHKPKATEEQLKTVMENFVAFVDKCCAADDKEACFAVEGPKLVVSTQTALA
# No constants are given. Whether binding was seen depends on the method and setting.
# Target: T1, Pisum sativum agglutinin (PSA) of Comparison Example 4 (Pisum sativum) (UniProt P02867)
# T1 sequence (looked up): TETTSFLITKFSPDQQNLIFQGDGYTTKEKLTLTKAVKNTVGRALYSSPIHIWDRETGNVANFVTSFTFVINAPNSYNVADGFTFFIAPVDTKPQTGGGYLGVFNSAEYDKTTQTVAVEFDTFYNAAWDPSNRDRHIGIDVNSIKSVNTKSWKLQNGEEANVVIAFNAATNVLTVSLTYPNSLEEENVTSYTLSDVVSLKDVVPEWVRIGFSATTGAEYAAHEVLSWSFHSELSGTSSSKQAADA
# Assay: hemagglutination inhibition; glycoprotein titrated against lectin at titer 4
substance,measurement,value
Bovine serum albumin (from UniProt P02769 25-607),binding,no binding (tested: 250 µl/ml)
